For this assay, the target named is SMARCA4 (mouse (endogenous in Tregs)) (UniProt Q3TKT4). Kind of assay: co-IP.

By UniProt entry, the sequences of proteins in these tests, tags left out.
UniProt Q3TKT4: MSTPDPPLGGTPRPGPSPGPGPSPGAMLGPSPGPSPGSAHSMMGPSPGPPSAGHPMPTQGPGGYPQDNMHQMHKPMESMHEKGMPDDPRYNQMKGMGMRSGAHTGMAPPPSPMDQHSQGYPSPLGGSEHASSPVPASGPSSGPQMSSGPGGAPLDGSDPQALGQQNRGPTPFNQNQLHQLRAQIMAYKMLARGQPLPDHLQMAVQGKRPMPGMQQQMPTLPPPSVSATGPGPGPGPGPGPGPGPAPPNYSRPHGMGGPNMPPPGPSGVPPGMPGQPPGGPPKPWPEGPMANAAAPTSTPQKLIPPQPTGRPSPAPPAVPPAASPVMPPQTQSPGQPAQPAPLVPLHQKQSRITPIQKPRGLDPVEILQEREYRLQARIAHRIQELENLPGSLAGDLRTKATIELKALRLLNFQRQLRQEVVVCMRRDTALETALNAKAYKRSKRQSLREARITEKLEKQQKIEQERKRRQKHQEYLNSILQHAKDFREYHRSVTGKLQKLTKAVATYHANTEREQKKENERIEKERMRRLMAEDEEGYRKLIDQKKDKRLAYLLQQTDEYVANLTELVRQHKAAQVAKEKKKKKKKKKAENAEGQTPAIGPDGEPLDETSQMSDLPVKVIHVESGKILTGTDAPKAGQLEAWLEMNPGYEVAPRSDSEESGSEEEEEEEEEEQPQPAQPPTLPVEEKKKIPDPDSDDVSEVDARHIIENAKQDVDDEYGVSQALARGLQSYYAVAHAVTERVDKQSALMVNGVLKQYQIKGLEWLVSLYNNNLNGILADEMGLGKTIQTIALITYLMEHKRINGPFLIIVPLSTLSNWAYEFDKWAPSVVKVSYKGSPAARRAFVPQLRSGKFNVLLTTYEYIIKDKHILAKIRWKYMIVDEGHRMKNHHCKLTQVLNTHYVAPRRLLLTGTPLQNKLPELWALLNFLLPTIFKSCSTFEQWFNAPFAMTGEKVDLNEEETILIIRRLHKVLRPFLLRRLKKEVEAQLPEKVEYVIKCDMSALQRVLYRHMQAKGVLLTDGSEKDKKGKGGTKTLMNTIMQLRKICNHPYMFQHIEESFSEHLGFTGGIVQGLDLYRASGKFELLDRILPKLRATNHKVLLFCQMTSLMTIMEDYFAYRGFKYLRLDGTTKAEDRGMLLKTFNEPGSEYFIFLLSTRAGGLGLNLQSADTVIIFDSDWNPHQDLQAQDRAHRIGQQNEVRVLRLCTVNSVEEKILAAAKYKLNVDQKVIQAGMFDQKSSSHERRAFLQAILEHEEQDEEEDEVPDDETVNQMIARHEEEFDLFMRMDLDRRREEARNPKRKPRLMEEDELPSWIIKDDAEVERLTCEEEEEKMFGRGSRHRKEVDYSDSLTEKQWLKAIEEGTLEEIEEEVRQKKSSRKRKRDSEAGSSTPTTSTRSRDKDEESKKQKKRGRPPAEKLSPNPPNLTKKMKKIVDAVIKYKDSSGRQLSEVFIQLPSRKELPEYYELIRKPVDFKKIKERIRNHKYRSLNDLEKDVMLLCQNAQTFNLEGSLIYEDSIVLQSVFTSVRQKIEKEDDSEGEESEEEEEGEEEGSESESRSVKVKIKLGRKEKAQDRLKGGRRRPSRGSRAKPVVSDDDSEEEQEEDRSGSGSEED
UniProt Q8BSQ9: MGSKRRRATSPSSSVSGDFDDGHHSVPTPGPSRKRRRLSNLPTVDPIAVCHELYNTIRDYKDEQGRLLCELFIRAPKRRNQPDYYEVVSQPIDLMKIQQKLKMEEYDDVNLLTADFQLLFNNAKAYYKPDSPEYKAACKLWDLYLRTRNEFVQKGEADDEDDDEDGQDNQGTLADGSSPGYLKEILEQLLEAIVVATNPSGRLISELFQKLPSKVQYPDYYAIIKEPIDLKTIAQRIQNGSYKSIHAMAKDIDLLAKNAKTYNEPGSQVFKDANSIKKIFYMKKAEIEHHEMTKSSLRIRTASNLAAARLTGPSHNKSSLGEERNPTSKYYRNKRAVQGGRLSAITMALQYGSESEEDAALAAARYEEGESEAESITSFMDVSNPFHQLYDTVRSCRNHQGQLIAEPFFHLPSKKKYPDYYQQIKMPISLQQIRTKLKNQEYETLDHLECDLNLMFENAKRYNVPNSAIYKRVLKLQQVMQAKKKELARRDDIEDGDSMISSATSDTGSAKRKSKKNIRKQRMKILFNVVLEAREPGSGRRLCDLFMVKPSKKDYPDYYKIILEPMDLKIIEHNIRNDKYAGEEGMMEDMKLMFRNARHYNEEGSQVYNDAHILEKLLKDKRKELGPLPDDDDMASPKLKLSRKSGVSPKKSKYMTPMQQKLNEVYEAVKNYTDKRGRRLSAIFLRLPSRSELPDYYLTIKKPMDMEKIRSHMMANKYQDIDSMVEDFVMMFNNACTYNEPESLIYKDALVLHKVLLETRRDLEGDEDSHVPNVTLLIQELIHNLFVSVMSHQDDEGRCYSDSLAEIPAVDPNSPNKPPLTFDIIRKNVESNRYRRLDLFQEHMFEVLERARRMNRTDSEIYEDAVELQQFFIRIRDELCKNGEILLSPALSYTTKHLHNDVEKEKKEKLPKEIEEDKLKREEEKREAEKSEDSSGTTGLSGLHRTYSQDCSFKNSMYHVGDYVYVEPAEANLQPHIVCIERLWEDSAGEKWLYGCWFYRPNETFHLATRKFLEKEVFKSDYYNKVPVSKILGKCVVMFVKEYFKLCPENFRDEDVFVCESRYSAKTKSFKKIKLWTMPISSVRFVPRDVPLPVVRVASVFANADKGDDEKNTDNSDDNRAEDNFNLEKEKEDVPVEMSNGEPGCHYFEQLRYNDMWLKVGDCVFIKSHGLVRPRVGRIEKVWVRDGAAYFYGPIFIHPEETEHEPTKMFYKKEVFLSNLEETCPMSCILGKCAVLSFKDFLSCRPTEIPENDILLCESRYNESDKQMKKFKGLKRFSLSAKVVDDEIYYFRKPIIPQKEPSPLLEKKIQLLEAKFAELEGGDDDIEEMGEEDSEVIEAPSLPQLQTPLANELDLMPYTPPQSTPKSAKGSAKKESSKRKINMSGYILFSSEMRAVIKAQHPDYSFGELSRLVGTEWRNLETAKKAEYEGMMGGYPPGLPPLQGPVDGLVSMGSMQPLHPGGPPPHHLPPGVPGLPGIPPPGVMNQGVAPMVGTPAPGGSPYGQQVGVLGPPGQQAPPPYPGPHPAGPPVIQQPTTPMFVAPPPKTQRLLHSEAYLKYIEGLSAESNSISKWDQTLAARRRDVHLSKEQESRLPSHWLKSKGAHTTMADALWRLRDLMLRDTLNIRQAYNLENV
UniProt P97496: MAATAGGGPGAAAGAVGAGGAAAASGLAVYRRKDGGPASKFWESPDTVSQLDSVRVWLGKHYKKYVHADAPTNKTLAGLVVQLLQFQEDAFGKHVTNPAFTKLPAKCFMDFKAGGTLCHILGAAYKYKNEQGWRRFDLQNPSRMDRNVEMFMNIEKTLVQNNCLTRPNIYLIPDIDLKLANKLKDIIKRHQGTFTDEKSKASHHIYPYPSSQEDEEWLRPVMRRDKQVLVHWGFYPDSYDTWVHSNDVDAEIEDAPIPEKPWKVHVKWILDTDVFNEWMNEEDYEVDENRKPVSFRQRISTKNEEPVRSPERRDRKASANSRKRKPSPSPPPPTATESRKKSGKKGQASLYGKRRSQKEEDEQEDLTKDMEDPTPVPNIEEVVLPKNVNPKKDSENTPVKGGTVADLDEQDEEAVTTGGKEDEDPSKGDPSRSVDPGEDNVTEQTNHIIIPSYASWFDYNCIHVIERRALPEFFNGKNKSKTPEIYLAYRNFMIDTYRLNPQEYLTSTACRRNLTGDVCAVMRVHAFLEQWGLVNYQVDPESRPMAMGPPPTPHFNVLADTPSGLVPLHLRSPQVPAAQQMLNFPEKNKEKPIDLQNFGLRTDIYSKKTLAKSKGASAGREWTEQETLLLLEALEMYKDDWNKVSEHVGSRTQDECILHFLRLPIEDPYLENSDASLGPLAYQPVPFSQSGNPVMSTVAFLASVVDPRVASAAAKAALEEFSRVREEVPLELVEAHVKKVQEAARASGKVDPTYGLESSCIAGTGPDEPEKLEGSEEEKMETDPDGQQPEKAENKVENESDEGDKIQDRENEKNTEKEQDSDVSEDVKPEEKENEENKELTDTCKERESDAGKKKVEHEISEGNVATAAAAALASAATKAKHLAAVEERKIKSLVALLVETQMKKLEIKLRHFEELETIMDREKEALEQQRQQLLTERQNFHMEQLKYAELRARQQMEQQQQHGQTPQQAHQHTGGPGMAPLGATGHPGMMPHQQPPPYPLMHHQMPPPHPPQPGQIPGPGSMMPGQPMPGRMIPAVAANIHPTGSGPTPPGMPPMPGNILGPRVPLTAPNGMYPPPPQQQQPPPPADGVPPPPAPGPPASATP

No constants are given. Whether binding was seen depends on the method and setting. In cells and extracts the contact can be indirect. Some entries that bind do so weakly or less than the wild type.

Consider ARID1A (from UniProt A2BH40 1-2283), for which the binding result is “binds”.
In the case of PBRM1 (from UniProt Q8BSQ9 1-1634), the binding entry was “binds”.
Turning to SMARCC1 (from UniProt P97496 1-1104), the binding entry is “binds”.

B1: BRD9 (protein, UniProt Q3UQU0 1-596)
chain: MGKKHKKHKAEWRSSYEDYTDTPLEKPLKLVLKVGGSEVTELSGSGHDSSYYDDRSDHERERHREKKKKKKKKSEKEKHLDEEERRKRKEEKKRKREKEHCDSEGEADAFDPGKKVEVEPPPDRPVRACRTQPAENESTPIQRLLEHFLRQLQRKDPHGFFAFPVTDAIAPGYSMIIKHPMDFGTMKDKIVANEYKSVTEFKADFKLMCDNAMTYNRPDTVYYKLAKKILHAGFKMMSKAALLGSEDPAAEEPVPEVVPVQVETTKKSKKPSREVISCMFEPEGNACSLTDSTAEEHVLALVEHAADEARDRINRFLPGGKMGYLKKLGDGSLLYSVVNAPEPDADEEETHPVDLSSLSSKLLPGFTTLGFKDERRNKVTFLSSASTALSMQNNSVFGDLKSDEMELLYSAYGDETGVQCALSLQEFVKDAGSYSKKMVDDLLDQITGGDHSRMIFQLKQRRSIPMRPADEMKVGDPLGESGGPVLDFMSMKQYPDVSLDVSMLSSLGKVKKELDHEDSHLNLDETARLLQDLHEAQAERGGSRPSSNLSSLSTASEREHPPPGSPSRLSVGEQPDVAHDPYEFLQSPEPAAPAKN
Turning to B1, the binding result is given as “binds”.

Values taken from publication doi:10.1101/2020.02.26.964981.
